# Experiment: Remote active loading of prodrug into premade small unilamellar vesicles (transmembrane ammonium sulfate gradient)
# Settings: underivatized drug
row,Compound,localization in the liposome
1,CC[C@@]1(O)C(=O)OCc2c1cc1n(c2=O)Cc2c-1nc1ccc(O)cc1c2[Si](C)(C)C(C)(C)C [DB-67],localize predominantly in the bilayer compartment of the liposome
2,Camptothecin,localize predominantly in the bilayer compartment of the liposome
